Where two headings read alike, the source gives them in different places. No constants are given. Whether binding was seen depends on the method and setting. Binding seen in cells or lysates may run through a third protein. Some entries that bind do so weakly or less than the wild type.
What was measured:
Test in all cases: pull-down
GST-DbpA = GST-DbpA (UniProt P16989)
[1] = biological target: GST fused to the C-terminal fragment of ZO-2 (890-1190) (UniProt Q9UDY2)
[2] = biological target: GST fused to the C-terminal fragment of ZO-2 (890-1190) (UniProt Q9UDY2); remark: listed apart in the source
GST-ZPSG-1 [3] = biological target: GST-ZPSG-1 (UniProt Q07157)
GST-ZPSG-1 [4] = biological target: GST-ZPSG-1 (UniProt Q07157); remark: listed apart in the source

Protein sequences, listed by entry. Tags and fused reporters are not part of them. Chains listed by the source or under a name are the forms on record and can include a tag or linker. Residues count along the entry.
UniProt P16989: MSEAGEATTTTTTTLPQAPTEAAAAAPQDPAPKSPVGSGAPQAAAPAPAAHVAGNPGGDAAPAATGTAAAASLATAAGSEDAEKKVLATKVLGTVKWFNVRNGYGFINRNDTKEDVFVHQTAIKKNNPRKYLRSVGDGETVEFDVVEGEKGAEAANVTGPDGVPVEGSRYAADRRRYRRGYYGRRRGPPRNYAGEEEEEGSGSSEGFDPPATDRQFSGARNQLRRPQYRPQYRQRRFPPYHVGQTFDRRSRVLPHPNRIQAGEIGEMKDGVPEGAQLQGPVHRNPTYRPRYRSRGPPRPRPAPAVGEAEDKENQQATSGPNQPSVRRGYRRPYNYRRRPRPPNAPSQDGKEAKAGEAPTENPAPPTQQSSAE
GFP-tagged ZPSG region of ZO-2 (ZPSG-2, 509-880) (Q9UDY2, residues 509-880): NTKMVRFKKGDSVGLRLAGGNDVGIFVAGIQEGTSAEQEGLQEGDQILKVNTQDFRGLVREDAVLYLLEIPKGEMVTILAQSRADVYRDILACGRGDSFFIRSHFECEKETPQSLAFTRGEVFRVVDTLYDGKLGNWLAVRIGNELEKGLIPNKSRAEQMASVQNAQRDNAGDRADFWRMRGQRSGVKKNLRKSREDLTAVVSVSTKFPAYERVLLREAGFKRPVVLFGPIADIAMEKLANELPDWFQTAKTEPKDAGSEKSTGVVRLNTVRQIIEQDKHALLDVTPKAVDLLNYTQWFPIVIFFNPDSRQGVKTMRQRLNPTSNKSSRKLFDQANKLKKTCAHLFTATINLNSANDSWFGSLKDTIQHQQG
GST fused to the C-terminal fragment of ZO-2 (890-1190) (Q9UDY2, residues 890-1190): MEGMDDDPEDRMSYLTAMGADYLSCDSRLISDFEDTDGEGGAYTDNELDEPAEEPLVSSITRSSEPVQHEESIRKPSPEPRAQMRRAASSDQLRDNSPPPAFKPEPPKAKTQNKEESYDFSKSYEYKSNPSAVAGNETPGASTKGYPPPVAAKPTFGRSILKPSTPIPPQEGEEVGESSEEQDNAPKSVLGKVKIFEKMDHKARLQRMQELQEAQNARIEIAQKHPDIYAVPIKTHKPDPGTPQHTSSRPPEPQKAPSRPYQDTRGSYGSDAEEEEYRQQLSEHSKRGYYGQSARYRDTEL
GST-ZPSG-1 (Q07157, residues 417-806): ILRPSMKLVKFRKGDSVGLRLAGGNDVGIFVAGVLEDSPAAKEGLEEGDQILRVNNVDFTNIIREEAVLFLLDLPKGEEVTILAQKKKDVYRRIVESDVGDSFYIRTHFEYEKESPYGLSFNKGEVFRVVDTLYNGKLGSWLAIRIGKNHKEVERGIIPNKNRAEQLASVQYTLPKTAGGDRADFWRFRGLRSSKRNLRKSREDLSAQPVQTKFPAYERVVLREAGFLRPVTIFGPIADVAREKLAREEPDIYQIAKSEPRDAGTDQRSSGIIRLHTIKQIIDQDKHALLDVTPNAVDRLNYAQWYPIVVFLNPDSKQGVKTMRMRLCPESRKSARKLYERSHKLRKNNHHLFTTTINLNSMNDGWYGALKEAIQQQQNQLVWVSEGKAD
GFP-tagged C-terminal ZO-1 fragment (GFP-ZO-1-1619-1748) (Q07157, residues 1619-1748): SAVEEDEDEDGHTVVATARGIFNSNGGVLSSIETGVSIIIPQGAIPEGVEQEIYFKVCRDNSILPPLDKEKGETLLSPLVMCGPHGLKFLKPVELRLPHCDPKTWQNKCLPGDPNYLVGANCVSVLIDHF
UniProt Q61146, residues 406-521: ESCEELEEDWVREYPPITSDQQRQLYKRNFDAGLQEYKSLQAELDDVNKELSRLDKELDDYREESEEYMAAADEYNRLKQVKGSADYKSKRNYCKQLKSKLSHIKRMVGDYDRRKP

In the case of “GFP-tagged ZPSG region of ZO-2 (ZPSG-2, 509-880) (from UniProt Q9UDY2 509-880) (domain or fragment)”, the binding (GST-DbpA) is reported as “binds”, the binding [1] is reported as “binds” and the binding [2] is reported as “binds”.
For “GFP-tagged ZPSG region of ZO-1 (ZPSG-1, residues 417-806) (from UniProt Q07157 417-806) (domain or fragment)”, the binding (GST-DbpA) was “binds”.
“GFP-tagged C-terminal ZO-1 fragment (GFP-ZO-1-1619-1748) (from UniProt Q07157 1619-1748) (domain or fragment)” was tested, and the binding (GST-ZPSG-1 [3]) was “binds”.
With “HA-tagged C-terminal occludin (residues 406-521) (from UniProt Q61146 406-521) (domain or fragment)” the binding (GST-ZPSG-1 [4]) was “binds”.
